Reference: US20250101096A1
No constants are given. Whether binding was seen depends on the method and setting. Some results given as binding are weak or reduced against the parent protein; the word gives no strength.

Assays:
[1] = target: anti-SHBG antibody clone variant 4G10.F8; assay: ECLIA, single peptide competes with SHBG for the antibody
[2] = target: anti-IBP4 antibody clone variant 5B3.G9; assay: ECLIA, peptide competes with IBP4 for the antibody
[3] = target: anti-IBP4 antibody clone variant 7D6.G4; assay: ECLIA, peptide competes with IBP4 for the antibody

| Binder | binding [1] | binding [2] | binding [3] |
| --- | --- | --- | --- |
| LRPVLPTQSAHDPP [1] | binds | – | – |
| KCWCVDRKTGVKLPG [H1] | – | binds | binds |
| WCVDRKTGVKLPGGL [H2] | – | binds | binds |

Next, values leading:

| binding [1] | binding [2] | binding [3] | Binder |
| --- | --- | --- | --- |
| – | binds | binds | GQRGKCWCVDRKTGV [G11] |
| – | binds | binds | RGKCWCVDRKTGVKL [G12] |
